The list shows a part of the results.
Compound: Cc1cc(ccc1-c1ccccc1)C(=O)N1CCCN(CC1)C(=O)CCl [compound 10]
Experiment: probe-labelled cysteine peptide fold change vs DMSO (competition) (log2 fold change); higher = less target engagement (more negative = stronger competition)
Settings: THP-1, incubation time: 4 h
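Also: competitive profiling in live THP-1 cells: cysteine peptides tagged with an iodoacetamide desthiobiotin (IA-DTB) probe, intensity after compound treatment relative to DMSO-treated cells.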

Protein sequences, listed by entry. Tags and fused reporters are not part of them. Lines headed by an entry give the natural chain unless they say otherwise; changes in a name come on top.
UniProt Q7Z392: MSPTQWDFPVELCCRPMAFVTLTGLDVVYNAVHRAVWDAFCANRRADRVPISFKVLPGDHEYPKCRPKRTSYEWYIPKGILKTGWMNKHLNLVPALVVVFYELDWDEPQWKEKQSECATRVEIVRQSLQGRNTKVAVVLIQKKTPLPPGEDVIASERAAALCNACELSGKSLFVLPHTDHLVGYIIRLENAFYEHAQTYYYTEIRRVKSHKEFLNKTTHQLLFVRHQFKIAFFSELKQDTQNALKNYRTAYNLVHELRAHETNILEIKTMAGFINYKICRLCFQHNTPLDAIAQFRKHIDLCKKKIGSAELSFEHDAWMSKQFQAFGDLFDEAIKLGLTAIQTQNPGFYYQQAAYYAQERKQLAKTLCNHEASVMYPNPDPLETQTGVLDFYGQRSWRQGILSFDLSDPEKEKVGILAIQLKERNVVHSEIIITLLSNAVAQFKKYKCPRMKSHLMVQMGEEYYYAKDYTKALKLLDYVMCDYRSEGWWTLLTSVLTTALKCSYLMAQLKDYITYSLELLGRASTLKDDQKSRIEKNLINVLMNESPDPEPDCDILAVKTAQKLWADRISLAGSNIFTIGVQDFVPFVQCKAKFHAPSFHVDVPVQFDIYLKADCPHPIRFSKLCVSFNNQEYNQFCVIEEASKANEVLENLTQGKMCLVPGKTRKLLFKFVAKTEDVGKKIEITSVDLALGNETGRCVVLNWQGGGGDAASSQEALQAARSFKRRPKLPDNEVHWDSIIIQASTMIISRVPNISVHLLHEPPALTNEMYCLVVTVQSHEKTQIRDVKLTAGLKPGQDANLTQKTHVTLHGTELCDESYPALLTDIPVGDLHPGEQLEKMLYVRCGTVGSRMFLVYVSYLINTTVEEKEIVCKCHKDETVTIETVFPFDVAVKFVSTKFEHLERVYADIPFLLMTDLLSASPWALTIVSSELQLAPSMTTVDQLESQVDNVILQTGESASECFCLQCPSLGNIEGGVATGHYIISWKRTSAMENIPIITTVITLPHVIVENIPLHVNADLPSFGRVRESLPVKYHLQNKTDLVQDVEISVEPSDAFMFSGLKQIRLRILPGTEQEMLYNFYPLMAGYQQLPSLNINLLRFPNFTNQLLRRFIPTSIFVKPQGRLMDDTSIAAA
UniProt Q14258, whole entry, looked up: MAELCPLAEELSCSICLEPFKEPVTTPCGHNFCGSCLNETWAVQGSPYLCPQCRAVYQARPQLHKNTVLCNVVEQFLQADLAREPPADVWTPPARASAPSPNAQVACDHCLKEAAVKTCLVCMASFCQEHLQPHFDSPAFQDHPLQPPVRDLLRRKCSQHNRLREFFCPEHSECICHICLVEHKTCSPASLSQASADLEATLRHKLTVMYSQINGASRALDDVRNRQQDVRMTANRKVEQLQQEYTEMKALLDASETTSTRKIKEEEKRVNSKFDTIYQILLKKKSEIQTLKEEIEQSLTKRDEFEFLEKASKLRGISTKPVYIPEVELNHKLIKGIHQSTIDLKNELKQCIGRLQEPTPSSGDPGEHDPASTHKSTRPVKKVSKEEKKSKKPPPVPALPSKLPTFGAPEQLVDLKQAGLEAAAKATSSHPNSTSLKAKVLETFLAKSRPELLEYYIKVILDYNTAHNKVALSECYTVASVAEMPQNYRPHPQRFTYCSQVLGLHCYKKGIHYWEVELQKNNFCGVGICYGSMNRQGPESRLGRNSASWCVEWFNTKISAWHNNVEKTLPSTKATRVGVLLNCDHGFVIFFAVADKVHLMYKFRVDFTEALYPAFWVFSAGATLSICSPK
UniProt Q8IZ69: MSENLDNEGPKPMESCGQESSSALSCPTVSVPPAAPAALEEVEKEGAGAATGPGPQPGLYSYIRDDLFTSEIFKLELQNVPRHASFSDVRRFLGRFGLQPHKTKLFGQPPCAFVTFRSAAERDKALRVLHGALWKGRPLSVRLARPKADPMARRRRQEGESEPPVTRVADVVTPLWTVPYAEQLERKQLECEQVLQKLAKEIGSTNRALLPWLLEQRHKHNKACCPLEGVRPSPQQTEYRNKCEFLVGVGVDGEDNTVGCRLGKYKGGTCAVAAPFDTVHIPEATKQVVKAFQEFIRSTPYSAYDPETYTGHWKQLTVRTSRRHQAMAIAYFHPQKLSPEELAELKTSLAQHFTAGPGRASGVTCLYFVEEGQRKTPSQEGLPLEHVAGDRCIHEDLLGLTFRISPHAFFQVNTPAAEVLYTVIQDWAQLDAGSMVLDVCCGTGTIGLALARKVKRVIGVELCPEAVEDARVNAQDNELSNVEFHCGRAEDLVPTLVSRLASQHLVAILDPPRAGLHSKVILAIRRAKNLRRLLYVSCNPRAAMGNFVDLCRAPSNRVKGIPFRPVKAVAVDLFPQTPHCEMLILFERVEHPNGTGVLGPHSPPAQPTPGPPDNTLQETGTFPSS
UniProt O15164: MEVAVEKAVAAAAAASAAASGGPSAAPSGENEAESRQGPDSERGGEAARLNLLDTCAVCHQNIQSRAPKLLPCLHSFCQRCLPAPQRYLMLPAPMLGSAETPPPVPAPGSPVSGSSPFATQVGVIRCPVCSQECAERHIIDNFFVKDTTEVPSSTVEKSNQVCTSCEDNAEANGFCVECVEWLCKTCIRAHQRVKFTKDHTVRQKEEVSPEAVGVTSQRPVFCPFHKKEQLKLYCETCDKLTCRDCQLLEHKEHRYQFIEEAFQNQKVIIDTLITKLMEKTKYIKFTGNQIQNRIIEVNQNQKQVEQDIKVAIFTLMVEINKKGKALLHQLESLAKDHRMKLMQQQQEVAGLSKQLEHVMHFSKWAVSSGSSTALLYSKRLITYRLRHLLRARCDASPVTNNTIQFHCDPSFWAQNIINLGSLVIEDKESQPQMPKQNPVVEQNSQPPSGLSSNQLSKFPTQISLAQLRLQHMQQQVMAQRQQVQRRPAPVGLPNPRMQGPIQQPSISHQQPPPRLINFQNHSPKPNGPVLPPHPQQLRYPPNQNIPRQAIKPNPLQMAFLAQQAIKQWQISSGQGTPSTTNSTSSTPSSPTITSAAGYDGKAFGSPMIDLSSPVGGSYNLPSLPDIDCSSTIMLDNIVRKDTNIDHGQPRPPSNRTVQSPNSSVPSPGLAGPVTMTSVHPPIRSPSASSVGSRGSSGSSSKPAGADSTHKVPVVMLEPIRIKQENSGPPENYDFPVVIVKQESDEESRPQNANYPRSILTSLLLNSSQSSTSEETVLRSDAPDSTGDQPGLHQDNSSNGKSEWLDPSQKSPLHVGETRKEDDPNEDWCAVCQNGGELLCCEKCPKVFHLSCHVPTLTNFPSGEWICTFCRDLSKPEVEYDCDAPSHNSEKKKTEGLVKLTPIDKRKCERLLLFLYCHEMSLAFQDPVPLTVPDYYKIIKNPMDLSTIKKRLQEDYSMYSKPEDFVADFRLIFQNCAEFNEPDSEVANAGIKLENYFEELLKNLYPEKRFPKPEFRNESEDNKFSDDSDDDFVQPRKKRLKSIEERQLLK
UniProt Q9NXH9: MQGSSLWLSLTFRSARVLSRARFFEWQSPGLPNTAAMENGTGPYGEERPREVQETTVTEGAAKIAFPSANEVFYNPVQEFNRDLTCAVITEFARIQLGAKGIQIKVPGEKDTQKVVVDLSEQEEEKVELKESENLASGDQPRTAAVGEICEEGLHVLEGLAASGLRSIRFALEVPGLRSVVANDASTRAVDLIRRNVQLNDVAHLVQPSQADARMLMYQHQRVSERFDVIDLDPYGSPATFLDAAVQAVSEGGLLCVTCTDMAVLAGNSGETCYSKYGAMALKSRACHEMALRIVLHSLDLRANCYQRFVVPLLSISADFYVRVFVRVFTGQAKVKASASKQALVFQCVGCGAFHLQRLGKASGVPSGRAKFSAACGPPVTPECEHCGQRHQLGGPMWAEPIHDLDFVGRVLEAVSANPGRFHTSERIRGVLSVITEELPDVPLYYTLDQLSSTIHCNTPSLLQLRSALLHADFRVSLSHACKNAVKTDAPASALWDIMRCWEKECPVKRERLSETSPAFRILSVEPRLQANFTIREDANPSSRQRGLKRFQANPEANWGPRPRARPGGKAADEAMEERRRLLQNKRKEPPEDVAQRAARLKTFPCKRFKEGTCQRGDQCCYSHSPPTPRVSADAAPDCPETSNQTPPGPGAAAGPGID
UniProt O14545: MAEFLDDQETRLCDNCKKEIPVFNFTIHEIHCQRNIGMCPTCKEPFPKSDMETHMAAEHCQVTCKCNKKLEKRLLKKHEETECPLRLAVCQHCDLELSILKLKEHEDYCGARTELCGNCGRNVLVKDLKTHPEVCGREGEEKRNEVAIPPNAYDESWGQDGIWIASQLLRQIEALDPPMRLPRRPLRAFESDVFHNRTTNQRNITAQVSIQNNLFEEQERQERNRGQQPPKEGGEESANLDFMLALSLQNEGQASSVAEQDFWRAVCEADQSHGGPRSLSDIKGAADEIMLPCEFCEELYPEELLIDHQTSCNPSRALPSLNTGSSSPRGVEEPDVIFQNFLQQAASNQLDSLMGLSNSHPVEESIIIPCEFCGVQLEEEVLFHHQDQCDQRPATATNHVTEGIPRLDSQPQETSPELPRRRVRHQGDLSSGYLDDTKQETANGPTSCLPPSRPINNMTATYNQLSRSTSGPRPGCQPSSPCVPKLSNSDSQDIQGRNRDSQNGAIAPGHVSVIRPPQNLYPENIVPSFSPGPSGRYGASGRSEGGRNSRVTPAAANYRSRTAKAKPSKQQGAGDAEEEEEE
UniProt Q9UL33, whole entry, looked up: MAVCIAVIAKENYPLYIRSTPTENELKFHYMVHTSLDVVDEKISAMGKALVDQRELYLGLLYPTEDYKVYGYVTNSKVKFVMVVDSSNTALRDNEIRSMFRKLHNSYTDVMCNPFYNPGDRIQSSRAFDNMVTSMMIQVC
UniProt P29144: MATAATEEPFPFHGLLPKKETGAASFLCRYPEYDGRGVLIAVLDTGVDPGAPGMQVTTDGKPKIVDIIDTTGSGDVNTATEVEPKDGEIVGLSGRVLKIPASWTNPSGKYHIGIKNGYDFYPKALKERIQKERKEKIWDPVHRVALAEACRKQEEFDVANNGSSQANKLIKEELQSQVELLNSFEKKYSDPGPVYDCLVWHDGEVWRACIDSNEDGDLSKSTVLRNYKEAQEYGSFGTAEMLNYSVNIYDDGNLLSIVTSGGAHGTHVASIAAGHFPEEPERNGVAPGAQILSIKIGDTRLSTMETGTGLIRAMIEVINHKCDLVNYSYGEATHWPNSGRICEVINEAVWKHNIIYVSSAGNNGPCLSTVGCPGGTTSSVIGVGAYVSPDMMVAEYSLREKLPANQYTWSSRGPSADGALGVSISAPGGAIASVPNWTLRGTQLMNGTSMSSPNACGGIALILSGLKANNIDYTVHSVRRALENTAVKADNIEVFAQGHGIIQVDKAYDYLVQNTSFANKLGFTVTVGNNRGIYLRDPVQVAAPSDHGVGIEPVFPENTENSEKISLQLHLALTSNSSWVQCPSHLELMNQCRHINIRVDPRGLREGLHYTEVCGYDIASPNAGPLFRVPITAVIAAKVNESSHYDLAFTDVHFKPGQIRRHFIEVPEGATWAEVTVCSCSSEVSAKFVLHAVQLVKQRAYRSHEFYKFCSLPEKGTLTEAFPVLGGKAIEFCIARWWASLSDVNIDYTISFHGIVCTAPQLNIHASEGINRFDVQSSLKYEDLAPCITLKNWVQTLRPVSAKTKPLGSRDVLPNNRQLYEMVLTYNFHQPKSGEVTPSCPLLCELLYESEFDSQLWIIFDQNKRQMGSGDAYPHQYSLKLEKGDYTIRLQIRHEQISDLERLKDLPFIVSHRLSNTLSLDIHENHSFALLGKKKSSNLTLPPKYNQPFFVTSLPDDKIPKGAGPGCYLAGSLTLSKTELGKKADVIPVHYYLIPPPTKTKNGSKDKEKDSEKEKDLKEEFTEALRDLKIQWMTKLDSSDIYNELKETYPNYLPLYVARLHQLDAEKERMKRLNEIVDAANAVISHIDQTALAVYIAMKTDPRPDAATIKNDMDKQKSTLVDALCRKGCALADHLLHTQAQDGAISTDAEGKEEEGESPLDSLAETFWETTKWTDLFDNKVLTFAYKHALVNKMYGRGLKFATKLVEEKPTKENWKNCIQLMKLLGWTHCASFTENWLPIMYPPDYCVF
UniProt Q9Y4K3: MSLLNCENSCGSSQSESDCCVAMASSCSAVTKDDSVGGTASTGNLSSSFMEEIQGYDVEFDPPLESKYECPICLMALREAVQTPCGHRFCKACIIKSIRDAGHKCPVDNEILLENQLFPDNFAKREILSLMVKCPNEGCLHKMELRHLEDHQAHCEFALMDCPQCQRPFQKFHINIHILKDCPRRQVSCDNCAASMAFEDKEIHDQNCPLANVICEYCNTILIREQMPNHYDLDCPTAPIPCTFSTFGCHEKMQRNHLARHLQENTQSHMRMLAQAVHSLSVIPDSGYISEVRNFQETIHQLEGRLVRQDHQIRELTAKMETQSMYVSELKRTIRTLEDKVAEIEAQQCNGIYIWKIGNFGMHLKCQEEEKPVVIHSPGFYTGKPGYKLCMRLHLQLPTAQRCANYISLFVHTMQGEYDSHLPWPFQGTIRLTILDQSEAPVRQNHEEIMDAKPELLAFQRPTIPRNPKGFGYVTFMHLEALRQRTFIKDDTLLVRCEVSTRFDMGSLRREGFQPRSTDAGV

Row | Target | probe-labelled cysteine peptide fold change (10 µM) | probe-labelled cysteine peptide fold change (50 µM)
1 | TRIM14_Q14142_42_CVCALCPVLGAHR (UniProt Q14142) | 0.0157 | 0.0727
2 | TRAPPC11_Q7Z392_302_KHIDLCK (UniProt Q7Z392) | -0.0237 | -0.11
3 | TRIM25_Q14258_498_FTYCSQVLGLHCYK (UniProt Q14258) | -1.23 | -2.92
4 | TRIM36_Q9NQ86_48_ELFTHPLILPCQHSICHK (UniProt Q9NQ86) | 0.0602 | 0.00235
5 | TRMT2A_Q8IZ69_225_ACCPLEGVRPSPQQTEYR (UniProt Q8IZ69) | -0.334 | -0.747
6 | TRIM24_O15164_73_LLPCLHSFCQR (UniProt O15164) | -0.0887 | -0.068
7 | TRIOBP_Q9H2D6_1842_SCTDVTEYAVQR (UniProt Q9H2D6) | -0.0575 | 0.473
8 | TRIM28_Q13263_651+666_VCQKPGDLVMCNQCEFCFHLDCHLPALQDVPGEEWSCSLCHVLPDLK (UniProt Q13263) | 0.0941 | 0.167
9 | TRIM28_Q13263_713_VLLALFCHEPCRPLHQLATDSTFSLDQPGGTLDLTLIR (UniProt Q13263) | 0.362 | 0.0791
10 | TRIM32_Q13049_100_IIDTAGLSEAVGLLMCR (UniProt Q13049) | -0.0382 | 0.498
11 | TRMT10C_Q7L0Y3_246_NVDPFHIYFCNLK (UniProt Q7L0Y3) | 0.0643 | 0.0549
12 | TRMT1_Q9NXH9_621_GDQCCYSHSPPTPR (UniProt Q9NXH9) | -0.0265 | -0.0659
13 | TRAPPC10_P48553_916_CMVTTDHK (UniProt P48553) | -0.149 | -0.45
14 | TRAFD1_O14545_93_LAVCQHCDLELSILK (UniProt O14545) | -0.0117 | -0.347
15 | TPRN_Q4KMQ1_399_SPLEVEAQWAVEEGACPR (UniProt Q4KMQ1) | -0.45 | -0.589
16 | TRIM25_Q14258_174+179_LREFFCPEHSECICHICLVEHK (UniProt Q14258) | 0.00201 | -0.362
17 | TRIP12_Q14669_502_SVVPALITLLQMEHNFDIMNHACR (UniProt Q14669) | 0.108 | 0.00473
18 | TRMT1_Q9NXH9_351_QALVFQCVGCGAFHLQR (UniProt Q9NXH9) | 0.0014 | 0.202
19 | TRIM24_O15164_127+134_CPVCSQECAER (UniProt O15164) | 0.118 | -0.0216
20 | TRIM25_Q14258_174_EFFCPEHSECICHICLVEHK (UniProt Q14258) | 0.0389 | 0.145
21 | TRIM5_Q9C035_95_VDHCAR (UniProt Q9C035) | -0.107 | -0.113

Row | Target | probe-labelled cysteine peptide fold change (10 µM) | probe-labelled cysteine peptide fold change (50 µM)
22 | TRAPPC6A_O75865_124_FLAFTCGLLR (UniProt O75865) | 0.203 | 0.608
23 | TRIM56_Q9BRZ2_41_TLPCLHTYCQDCLAQLADGGR (UniProt Q9BRZ2) | 0.238 | 0.113
24 | TRMT1L_Q7Z2T5_239_EADTDVQVCPNYSIPQK (UniProt Q7Z2T5) | -0.348 | -0.634
25 | TREX1_Q9NSU2_35_VTELCLLAVHR (UniProt Q9NSU2) | 0.154 | 0.0613
26 | TRIM21_P19474_103_LHLFCEK (UniProt P19474) | 0.171 | -0.196
27 | TRANK1_O15050_739_KDDKPTLGAGAPDCSEVGEGHAQVGLGALQLVPDDNR (UniProt O15050) | -0.124 | 0.0626
28 | TRAPPC2L_Q9UL33_112_LHNSYTDVMCNPFYNPGDR (UniProt Q9UL33) | -0.0714 | 0.0356
29 | TRMT2A_Q8IZ69_270_GGTCAVAAPFDTVHIPEATK (UniProt Q8IZ69) | -0.0935 | -0.357
30 | TRAPPC11_Q7Z392_282_LCFQHNTPLDAIAQFR (UniProt Q7Z392) | -0.0525 | 0.0288
31 | TPP2_P29144_710_FCSLPEK (UniProt P29144) | -0.0916 | 0.124
32 | TPT1_P13693_28_EIADGLCLEVEGK (UniProt P13693) | -0.12 | 0.0761
33 | TPP2_P29144_678+680_RHFIEVPEGATWAEVTVCSCSSEVSAK (UniProt P29144) | 0.371 | -0.315
34 | TRAF6_Q9Y4K3_208_EIHDQNCPLANVICEYCNTILIR (UniProt Q9Y4K3) | 0.343 | 0.333
35 | TRAFD1_O14545_109_EHEDYCGAR (UniProt O14545) | -0.0369 | 0.1
36 | TRIP6_Q15654_387_GLDGIPFTVDATSQIHCIEDFHRK (UniProt Q15654) | 0.0396 | -0.0263
37 | TRIOBP_Q9H2D6_2233_CQQEGQELLR (UniProt Q9H2D6) | 0.136 | -0.0418
38 | TRAPPC8_Q9Y2L5_1330_SLCLVPVTLLLSNCSK (UniProt Q9Y2L5) | -0.106 | -0.116
39 | TPP2_P29144_967_GAGPGCYLAGSLTLSK (UniProt P29144) | 0.000606 | -0.0824
40 | TRIM4_Q9C037_293_TVCQIPLMK (UniProt Q9C037) | -0.181 | -0.197
41 | TRAF6_Q9Y4K3_134_CPNEGCLHK (UniProt Q9Y4K3) | 0.0129 | -0.0767

Reference: the supplement of paper PMC12067093, “Discovery and optimisation of a covalent ligand for TRIM25 and its application to targeted protein ubiquitination” (Chemical Science, 2025)
